These are yes or no findings as the source states them, for the method shown.
Target: MinD (CDR0987) fused to the T18 or T25 fragment of CyaA (Clostridioides difficile R20291) (UniProt Q18B12)
Assay: two-hybrid; bacterial two-hybrid in E. coli BTH101: N- and C-terminal fusions to the T18 and T25 fragments of CyaA, spotted on LB-agar with X-gal and 0.5 mM IPTG, 24-36 h at 30 °C

By UniProt entry, the sequences of proteins in these tests, tags left out.
UniProt Q18B12: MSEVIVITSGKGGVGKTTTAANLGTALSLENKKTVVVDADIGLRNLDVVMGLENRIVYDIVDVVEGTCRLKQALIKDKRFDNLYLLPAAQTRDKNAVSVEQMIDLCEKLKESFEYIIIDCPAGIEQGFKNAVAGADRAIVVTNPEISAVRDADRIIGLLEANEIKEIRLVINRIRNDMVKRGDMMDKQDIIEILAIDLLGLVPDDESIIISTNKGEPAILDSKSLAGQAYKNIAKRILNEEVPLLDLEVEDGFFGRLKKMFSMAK

With “MinD (CDR0987) fused to the T18 or T25 fragment of CyaA (from UniProt Q18B12 1-265)” the binding was “no binding”.
